Assay results taken from the supplement of paper PMC12067093, “Discovery and optimisation of a covalent ligand for TRIM25 and its application to targeted protein ubiquitination” (Chemical Science, 2025).
The list shows a part of the results.

Chains of the proteins cited; added tags and fusions are not shown. Lines headed by an entry give the natural chain unless they say otherwise; changes in a name come on top.
UniProt Q96EM0: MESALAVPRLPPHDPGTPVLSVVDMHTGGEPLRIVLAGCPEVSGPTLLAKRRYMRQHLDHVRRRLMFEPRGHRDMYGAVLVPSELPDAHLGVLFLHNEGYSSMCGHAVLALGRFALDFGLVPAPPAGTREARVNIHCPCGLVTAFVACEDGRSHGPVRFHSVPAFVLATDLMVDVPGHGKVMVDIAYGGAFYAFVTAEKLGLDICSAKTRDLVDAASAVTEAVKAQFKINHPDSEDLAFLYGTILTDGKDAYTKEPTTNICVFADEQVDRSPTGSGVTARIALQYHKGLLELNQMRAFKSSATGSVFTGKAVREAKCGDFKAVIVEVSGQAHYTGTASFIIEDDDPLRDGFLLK
UniProt Q6P597: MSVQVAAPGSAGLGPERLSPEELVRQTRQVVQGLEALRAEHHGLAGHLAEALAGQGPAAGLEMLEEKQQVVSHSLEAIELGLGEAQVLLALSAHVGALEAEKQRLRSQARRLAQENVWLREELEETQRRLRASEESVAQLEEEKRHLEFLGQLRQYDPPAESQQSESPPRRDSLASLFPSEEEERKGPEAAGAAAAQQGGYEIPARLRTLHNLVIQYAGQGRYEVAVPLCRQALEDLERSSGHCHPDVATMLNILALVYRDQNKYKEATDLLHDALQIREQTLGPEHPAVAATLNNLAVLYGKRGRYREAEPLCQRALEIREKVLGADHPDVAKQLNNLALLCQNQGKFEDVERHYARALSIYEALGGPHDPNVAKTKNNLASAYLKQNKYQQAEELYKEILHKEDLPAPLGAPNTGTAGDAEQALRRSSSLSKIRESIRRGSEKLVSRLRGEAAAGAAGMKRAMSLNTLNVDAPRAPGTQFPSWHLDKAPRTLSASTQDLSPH
UniProt P52294, whole entry, looked up: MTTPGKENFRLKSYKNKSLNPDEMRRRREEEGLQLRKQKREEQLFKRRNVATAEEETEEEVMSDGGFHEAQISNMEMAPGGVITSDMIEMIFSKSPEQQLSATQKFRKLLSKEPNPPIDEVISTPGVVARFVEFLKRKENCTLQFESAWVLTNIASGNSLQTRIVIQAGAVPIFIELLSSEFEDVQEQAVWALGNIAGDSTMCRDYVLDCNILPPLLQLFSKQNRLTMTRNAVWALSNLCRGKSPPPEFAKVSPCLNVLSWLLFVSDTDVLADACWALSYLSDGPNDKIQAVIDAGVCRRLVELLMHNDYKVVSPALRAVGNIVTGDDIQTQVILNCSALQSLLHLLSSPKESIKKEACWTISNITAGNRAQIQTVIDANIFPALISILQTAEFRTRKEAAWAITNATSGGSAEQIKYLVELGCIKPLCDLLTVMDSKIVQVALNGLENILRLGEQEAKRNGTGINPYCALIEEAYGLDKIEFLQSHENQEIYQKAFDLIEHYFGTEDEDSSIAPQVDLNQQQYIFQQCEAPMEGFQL
UniProt O43813, whole entry, looked up: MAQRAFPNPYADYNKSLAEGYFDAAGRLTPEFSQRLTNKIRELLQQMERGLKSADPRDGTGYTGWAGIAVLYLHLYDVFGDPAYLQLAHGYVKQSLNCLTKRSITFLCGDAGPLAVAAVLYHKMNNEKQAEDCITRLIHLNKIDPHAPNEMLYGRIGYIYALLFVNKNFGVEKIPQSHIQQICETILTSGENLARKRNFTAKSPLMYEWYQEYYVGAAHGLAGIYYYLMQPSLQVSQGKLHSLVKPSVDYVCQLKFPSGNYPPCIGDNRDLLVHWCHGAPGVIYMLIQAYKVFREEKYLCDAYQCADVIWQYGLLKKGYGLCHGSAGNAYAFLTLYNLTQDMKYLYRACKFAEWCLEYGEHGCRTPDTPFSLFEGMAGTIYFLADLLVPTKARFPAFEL
UniProt Q86WU2: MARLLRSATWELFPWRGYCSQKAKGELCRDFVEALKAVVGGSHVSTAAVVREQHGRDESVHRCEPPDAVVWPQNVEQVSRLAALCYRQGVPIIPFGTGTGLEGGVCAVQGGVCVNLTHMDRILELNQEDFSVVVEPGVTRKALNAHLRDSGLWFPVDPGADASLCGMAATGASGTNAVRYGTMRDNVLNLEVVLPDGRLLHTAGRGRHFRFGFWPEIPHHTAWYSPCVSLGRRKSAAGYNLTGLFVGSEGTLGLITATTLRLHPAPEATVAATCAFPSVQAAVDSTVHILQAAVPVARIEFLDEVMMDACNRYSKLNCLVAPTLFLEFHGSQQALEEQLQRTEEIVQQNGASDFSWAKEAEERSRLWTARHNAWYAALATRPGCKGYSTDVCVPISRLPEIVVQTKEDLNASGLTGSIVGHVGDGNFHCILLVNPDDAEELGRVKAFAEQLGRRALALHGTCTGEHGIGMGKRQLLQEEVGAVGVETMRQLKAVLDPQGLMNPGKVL
UniProt Q9Y664: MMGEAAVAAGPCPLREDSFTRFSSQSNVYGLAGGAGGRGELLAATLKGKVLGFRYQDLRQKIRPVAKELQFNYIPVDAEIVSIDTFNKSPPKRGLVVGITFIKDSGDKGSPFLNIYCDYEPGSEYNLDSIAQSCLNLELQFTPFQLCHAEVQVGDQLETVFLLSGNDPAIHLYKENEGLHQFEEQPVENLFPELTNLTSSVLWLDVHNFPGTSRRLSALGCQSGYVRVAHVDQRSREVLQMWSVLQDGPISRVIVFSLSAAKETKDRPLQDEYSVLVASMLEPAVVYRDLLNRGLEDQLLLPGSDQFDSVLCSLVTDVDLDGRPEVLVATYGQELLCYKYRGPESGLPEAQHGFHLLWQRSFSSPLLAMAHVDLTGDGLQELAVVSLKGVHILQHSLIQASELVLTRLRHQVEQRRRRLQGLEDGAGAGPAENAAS
UniProt Q969R5, whole entry, looked up: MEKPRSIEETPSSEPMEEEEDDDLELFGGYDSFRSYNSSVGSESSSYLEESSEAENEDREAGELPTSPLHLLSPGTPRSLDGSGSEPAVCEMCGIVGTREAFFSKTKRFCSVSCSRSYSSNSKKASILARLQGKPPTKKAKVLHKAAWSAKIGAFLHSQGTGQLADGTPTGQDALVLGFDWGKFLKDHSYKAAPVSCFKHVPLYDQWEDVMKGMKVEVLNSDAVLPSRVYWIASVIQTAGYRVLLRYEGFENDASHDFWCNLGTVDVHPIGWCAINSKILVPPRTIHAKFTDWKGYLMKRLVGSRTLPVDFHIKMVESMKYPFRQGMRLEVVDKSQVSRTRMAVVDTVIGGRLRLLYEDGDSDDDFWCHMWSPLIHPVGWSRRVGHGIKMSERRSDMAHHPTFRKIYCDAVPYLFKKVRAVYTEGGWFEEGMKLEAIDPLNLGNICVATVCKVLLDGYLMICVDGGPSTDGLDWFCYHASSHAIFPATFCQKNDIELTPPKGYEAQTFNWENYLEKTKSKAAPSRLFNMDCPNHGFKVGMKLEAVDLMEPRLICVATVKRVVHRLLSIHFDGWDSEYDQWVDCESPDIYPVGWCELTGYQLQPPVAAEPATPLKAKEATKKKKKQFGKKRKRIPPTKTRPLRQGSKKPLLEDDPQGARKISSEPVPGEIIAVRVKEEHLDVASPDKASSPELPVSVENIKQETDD
UniProt Q9P2J5: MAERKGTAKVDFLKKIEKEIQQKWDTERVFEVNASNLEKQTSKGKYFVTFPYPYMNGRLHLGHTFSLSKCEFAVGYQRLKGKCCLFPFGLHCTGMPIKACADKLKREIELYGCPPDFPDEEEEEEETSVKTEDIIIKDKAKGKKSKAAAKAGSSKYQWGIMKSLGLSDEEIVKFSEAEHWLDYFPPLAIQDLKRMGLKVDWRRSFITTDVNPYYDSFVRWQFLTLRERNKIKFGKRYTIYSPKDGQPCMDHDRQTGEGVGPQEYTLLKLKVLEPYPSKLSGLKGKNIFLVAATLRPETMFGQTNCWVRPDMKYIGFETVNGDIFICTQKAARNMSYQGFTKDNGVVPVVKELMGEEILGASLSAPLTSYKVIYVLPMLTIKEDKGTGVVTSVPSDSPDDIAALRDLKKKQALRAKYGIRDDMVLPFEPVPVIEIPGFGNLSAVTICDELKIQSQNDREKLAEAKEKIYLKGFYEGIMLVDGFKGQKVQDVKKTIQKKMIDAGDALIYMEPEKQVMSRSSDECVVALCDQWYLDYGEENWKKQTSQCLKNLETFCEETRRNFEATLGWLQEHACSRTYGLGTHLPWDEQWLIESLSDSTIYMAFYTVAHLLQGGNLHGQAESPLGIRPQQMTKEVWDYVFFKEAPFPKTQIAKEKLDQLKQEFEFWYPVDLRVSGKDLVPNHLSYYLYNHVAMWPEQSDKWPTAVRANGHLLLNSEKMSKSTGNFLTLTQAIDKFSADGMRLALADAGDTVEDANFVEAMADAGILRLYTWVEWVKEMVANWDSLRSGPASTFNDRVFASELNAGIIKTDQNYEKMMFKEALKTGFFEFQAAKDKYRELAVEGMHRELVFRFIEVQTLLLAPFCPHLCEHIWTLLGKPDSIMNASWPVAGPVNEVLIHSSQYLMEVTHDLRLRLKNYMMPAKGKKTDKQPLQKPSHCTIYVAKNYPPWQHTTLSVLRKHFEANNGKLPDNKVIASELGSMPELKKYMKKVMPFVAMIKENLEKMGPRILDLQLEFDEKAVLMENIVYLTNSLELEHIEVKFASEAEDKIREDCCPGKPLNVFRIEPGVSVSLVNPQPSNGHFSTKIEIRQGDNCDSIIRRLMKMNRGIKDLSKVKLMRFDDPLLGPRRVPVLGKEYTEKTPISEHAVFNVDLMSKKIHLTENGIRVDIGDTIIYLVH
UniProt Q99661: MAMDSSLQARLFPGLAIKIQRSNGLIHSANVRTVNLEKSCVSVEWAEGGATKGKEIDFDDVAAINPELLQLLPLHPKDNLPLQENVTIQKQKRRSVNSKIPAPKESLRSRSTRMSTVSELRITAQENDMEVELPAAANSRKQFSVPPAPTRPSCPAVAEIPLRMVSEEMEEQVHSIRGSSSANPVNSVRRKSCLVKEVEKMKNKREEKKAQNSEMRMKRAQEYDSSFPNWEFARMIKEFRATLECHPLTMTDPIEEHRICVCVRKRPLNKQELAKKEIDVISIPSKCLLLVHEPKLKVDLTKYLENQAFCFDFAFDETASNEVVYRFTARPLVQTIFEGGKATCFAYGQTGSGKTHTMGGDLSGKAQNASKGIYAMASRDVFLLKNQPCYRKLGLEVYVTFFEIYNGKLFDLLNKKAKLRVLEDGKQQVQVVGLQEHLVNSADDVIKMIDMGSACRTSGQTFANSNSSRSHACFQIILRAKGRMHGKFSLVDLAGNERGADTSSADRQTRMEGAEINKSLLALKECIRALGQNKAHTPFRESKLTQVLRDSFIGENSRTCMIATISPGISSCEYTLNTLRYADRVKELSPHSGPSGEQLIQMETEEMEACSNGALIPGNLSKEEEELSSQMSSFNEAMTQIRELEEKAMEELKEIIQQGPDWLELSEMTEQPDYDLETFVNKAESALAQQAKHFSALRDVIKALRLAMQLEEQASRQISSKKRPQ
UniProt Q16719: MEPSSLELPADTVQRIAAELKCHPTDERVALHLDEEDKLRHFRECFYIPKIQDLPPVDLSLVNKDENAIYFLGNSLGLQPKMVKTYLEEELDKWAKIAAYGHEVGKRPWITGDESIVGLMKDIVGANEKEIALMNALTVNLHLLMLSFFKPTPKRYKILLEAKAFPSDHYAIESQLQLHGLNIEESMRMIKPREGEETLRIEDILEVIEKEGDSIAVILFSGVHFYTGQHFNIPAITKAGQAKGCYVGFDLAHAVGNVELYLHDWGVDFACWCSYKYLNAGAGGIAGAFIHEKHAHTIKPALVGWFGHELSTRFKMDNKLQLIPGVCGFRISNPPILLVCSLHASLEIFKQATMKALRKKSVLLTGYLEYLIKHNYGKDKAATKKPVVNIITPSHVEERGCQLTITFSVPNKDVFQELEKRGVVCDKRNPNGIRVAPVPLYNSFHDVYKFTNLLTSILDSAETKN
UniProt Q9NSK0: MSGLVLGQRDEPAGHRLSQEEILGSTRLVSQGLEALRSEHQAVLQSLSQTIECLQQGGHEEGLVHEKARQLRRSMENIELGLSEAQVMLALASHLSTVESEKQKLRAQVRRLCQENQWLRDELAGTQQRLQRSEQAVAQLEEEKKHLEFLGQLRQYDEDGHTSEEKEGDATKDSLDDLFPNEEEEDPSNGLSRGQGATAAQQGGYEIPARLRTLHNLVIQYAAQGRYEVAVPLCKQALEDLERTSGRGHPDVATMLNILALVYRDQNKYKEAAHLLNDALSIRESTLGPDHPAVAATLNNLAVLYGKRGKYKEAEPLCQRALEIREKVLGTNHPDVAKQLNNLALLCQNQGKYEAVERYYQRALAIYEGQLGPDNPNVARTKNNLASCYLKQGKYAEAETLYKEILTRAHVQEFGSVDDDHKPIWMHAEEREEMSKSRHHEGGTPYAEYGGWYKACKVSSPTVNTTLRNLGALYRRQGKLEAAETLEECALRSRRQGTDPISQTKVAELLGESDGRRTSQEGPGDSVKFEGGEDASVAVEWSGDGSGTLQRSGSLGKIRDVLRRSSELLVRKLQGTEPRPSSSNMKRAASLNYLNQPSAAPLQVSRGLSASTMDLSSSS

Compound: Cc1cc(ccc1-c1ccccc1)C(=O)N1CCCN(CC1)C(=O)CCl [compound 10]
Assay: probe-labelled cysteine peptide fold change vs DMSO (competition) (log2 fold change); higher = less target engagement (more negative = stronger competition)
Details: THP-1, incubation time: 4 h
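Also: competitive profiling in live THP-1 cells: cysteine peptides tagged with an iodoacetamide desthiobiotin (IA-DTB) probe, intensity after compound treatment relative to DMSO-treated cells.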

Target | probe-labelled cysteine peptide fold change (10 µM) | probe-labelled cysteine peptide fold change (50 µM)
L3HYPDH_Q96EM0_205_LGLDICSAK (UniProt Q96EM0) | 0.162 | -0.0398
KLC3_Q6P597_314_EAEPLCQR (UniProt Q6P597) | 0.0555 | -0.222
KPNA1_P52294_424_YLVELGCIK (UniProt P52294) | 0.248 | 0.177
KLC2_Q9H0B6_474_LEAAHTLEDCASR (UniProt Q9H0B6) | -0.0332 | -0.246
LANCL1_O43813_183_IPQSHIQQICETILTSGENLAR (UniProt O43813) | 0.14 | 0.284
KYAT3_Q6YP21_313_HLQTVQQNTIYTCATPLQEALAQAFWIDIKR (UniProt Q6YP21) | 0.298 | 0.0587
KNOP1_Q1ED39_184_DVGDTCSVGK (UniProt Q1ED39) | -0.381 | -0.292
L3HYPDH_Q96EM0_139_VNIHCPCGLVTAFVACEDGR (UniProt Q96EM0) | -0.189 | -0.312
L3HYPDH_Q96EM0_137_VNIHCPCGLVTAFVACEDGR (UniProt Q96EM0) | 0.0341 | -0.405
KMT5B_Q4FZB7_54_CNGNSGFEGQSR (UniProt Q4FZB7) | -0.424 | -0.621
LDHD_Q86WU2_310_IEFLDEVMMDACNR (UniProt Q86WU2) | 0.198 | 0.345
KPTN_Q9Y664_221_RLSALGCQSGYVR (UniProt Q9Y664) | -0.0575 | 0.21
L3MBTL2_Q969R5_446_LEAIDPLNLGNICVATVCK (UniProt Q969R5) | 0.385 | 0.547
LCP1_P13796_206_KLTPFTIQENLNLALNSASAIGCHVVNIGAEDLK (UniProt P13796) | -0.293 | -0.296
LARP1_Q6PKG0_502_RREEPEKWPLPPIVDYSQTDFSQLLNCPEFVPR (UniProt Q6PKG0) | -0.0687 | -0.445
LARP1_Q6PKG0_502_REEPEKWPLPPIVDYSQTDFSQLLNCPEFVPR (UniProt Q6PKG0) | -0.146 | -0.353
LARS_Q9P2J5_546_QTSQCLK (UniProt Q9P2J5) | -0.0553 | -0.0485
LAIR1_Q6GTX8_101_CIYYKPPK (UniProt Q6GTX8) | -0.066 | -0.0579

Target | probe-labelled cysteine peptide fold change (10 µM) | probe-labelled cysteine peptide fold change (50 µM)
KLHL15_Q96M94_588_LDGLQVCNLHFPDYVLDEVR (UniProt Q96M94) | -0.0242 | -0.276
LARS_Q9P2J5_573_RNFEATLGWLQEHACSR (UniProt Q9P2J5) | -0.0392 | 0.208
KIF2C_Q99661_287_CLLLVHEPK (UniProt Q99661) | 0.181 | -0.0818
L2HGDH_Q9H9P8_376_ACFLGATVK (UniProt Q9H9P8) | 0.0555 | -0.155
LAP3_P28838_335_LNLPINIIGLAPLCENMPSGK (UniProt P28838) | -0.142 | -0.0472
LDHD_Q86WU2_462_ALALHGTCTGEHGIGMGK (UniProt Q86WU2) | -0.0481 | -0.116
KYNU_Q16719_45_HFRECFYIPK (UniProt Q16719) | -0.353 | -0.676
KYNU_Q16719_22_CHPTDER (UniProt Q16719) | 0.483 | 0.171
KLC4_Q9NSK0_489_QGKLEAAETLEECALR (UniProt Q9NSK0) | -0.173 | -0.911
LEMD3_Q9Y2U8_814_CSDNDGIVHIAVDK (UniProt Q9Y2U8) | 0.0911 | -0.0634
KPNA6_O60684_422_YLVSLGCIK (UniProt O60684) | 0.107 | 0.27
LARS_Q9P2J5_936_QPLQKPSHCTIYVAK (UniProt Q9P2J5) | -0.0296 | -0.926
LARP1_Q6PKG0_864_TASISSSPSEGTPTVGSYGCTPQSLPK (UniProt Q6PKG0) | -0.118 | -0.45
KLC1_Q07866_349_QLNNLALLCQNQGK (UniProt Q07866) | 0.114 | 0.0215
LANCL2_Q9NS86_149_RVTFLCGDAGPLAVGAVIYHK (UniProt Q9NS86) | -0.376 | -0.276
LARP4_Q71RC2_623_KLSYAEVCQKPPKEPSSVLVQPLR (UniProt Q71RC2) | 0.0129 | -0.0495
KMT2C_Q8NEZ4_417_GYHTFCLQPVMK (UniProt Q8NEZ4) | 0.0697 | -0.0801
L3MBTL2_Q969R5_554_LICVATVK (UniProt Q969R5) | 0.0463 | 0.502

Fetched one by one from above:
Target | probe-labelled cysteine peptide fold change (10 µM) | probe-labelled cysteine peptide fold change (50 µM)
KPNA1_P52294_424_YLVELGCIK (UniProt P52294) | 0.248 | 0.177
KYNU_Q16719_22_CHPTDER (UniProt Q16719) | 0.483 | 0.171
